Assay results as given in the supplement of paper PMC12009310.
Where a name gives a salt, the structure may show the parent alone. ± gives the standard deviation of the averaged measurements. The list shows a part of the results. Plates or batches differ in their baseline, so values are only roughly comparable.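 The cells are a mouse kidney inner medullary collecting duct line, silenced either for the ciliary gene Rpgrip1l or with a non-targeting control siRNA.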

Test system: mIMCD3
Assay: robust z score of cilia incidence (% cells with single cilium) vs plate controls; higher = more ciliated cells
Details: 10 µM; 48 h; siRNA: siScr

Structure (SMILES)	robust z score of cilia incidence
O=c1c(-c2ccc(O)cc2)coc2cc(O)cc(O)c12 [Genistein]	-1.04 ± 0.72
C[C@@]1(O)[C@H](O)[C@@H](CO)O[C@H]1n1cnc2c(NC3CCCC3)nc(Cl)nc21	-1.11 ± 1.1
CC(/C=C/c1cccc(Oc2ccc(F)cc2)c1)N(O)C(N)=O (stereo not given)	-2.91 ± 8.7
Oc1ccc(/C=C/c2cc(O)cc(O)c2)cc1 [Resveratrol]	-22.8 ± 7.3
c1cc2c(cc1C1CCCCC1)c1c3n2CCNC3CCC1 (stereo not given) [Tetrindole mesylate]	-46.9 ± 7.5
O=C(O)C1(C(=O)O)CCC1.[NH2-].[NH2-].[Pt+2] [Carboplatin]	0.905 ± 1.6
OC(CN1CCC(Cc2ccc(F)cc2)CC1)c1ccc(Cl)cc1 (stereo not given) [Eliprodil]	-6.69 ± 0.8
N[C@@H](Cc1cc(-c2ccc(Cl)cc2Cl)cc(CP(=O)(O)O)c1O)C(=O)O	4.18 ± 3.1
Nc1[nH]nc2nnc(-c3c(-c4ccccc4)nn4ccccc34)cc12	-10.3 ± 3.5
CN(C)CCC=C1c2ccccc2COc2ccccc21 [Doxepin hydrochloride]	-0.729 ± 4.2
